From PubChem BioAssay AID540275 (National Center for Advancing Translational Sciences (NCATS), 2011)
About 620 (0.19%) of roughly 320,000 compounds were called active. The shares of active, inactive and inconclusive entries below differ from those in the screen. Cut-off read from the data, not from the text of the source: active = activation above about 80%; inconclusive = between about 30% and that limit; inactive = weaker than that.

Chains of the proteins cited; added tags and fusions are not shown.
UniProt Q8NER1, whole entry, looked up: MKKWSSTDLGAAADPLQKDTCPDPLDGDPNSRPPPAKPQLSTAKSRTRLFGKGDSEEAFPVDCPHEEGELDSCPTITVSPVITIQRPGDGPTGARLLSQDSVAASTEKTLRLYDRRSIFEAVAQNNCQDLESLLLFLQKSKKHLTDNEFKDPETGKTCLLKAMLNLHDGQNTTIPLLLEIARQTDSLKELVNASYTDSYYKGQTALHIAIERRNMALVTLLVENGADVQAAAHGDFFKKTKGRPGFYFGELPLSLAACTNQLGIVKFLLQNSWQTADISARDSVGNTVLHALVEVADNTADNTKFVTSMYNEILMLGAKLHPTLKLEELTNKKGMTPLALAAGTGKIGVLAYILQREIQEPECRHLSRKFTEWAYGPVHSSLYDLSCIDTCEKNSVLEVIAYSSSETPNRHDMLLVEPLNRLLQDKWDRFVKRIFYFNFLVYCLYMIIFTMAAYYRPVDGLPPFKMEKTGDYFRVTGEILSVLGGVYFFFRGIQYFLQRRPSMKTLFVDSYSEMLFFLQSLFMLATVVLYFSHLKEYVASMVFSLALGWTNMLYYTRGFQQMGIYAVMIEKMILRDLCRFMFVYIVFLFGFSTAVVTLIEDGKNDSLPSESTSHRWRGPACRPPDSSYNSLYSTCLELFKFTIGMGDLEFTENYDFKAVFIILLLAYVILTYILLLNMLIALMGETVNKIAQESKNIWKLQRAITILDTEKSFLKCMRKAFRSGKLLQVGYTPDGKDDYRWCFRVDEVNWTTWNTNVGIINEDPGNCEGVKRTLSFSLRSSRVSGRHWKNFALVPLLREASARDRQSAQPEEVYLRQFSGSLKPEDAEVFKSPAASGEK

target: Transient receptor potential cation channel subfamily V member 1 (Homo sapiens) (UniProt Q8NER1); assay: HTS Assay for Compounds that Act as Agonists of the Vanilloid Receptor 1; details: TRPV1-expressing cells, Fluo-8 calcium influx, agonist mode; at 8.33 µM, hits give high values; note: 0% is about no effect
How it was run: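 TRPV1-expressing cells were cultured overnight at 35.5C and loaded with Fluo-8 calcium dye for 40 to 90 min at room temperature. After a 10 s baseline, compound was added and calcium influx was read kinetically for 3 min (ex 480/em 520 nm).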

| Compound | activation |
| --- | --- |
| Cc1cc2nc3s/c(=C/c4ccc(-c5ccccc5C(=O)O)o4)c(=O)n3c2cc1C | inconclusive: 35.6% |
| CC1CCc2sc(C(=O)NC3CCCCC3)cc2C1 (centres undefined) | inconclusive: 67.9% |
| Cc1ccc(-c2csc(NC(=O)CN3CCOCC3)n2)cc1C | active: 94.9% |
| O=C(Nc1cccc(-n2cnnn2)c1)c1cccc(Cl)c1 | inconclusive: 72.7% |
| COc1ccc(-c2nn(-c3ccccc3)cc2/C=C/C(=O)NCCCn2ccnc2)cc1OC | inconclusive: 36% |
| O=C(C[n+]1cccc(O)c1)NCc1ccc(Cl)cc1 | inactive: -1.2% |
| Cc1ccc(S(=O)(=O)N2CC(C)N(C(=O)N3CCOCC3)C2C)cc1 (centres undefined) | inactive: -0.757% |
| CSc1ccc(Cl)c(C(=O)Nc2ccc(Cl)cn2)c1 | inconclusive: 38.2% |
| Cc1cccc([C@H](NC(=O)OC(C)(C)C)C(=O)OC(C)(C)C)c1 | inconclusive: 55% |
| CCOc1cc(NC(=S)NCC(C)C)c(OCC)cc1NC(=O)c1ccco1 | inconclusive: 37.7% |
| CC(=O)c1ccc(N(CC(=O)NC2CCCC2)C(=O)CCC(=O)Nc2cc(C)on2)cc1 | inactive: 0.393% |
| N#C/C(=N\Nc1ccc([N+](=O)[O-])cc1)C(N)=S | inactive: -0.877% |
| O=C(CSc1nc2ccccc2o1)N1CCOCC1 | inconclusive: 35.1% |
| Oc1ccc(-c2cn3cc(C(F)(F)F)ccc3n2)cc1 | inconclusive: 47.2% |
| COc1ccc(-c2cn[nH]c2-c2ccc(OCc3ccc([N+](=O)[O-])cc3)cc2O)cc1OC | inactive: -2.14% |
| CCN(CC)c1cc(C(F)(F)F)nc(-c2ccccn2)n1 | inactive: 1.66% |
| Cc1noc(/C=C/N(C)C)c1S(=O)(=O)N1CCCC(C(=O)Nc2ccccc2F)C1 (centres undefined) | inactive: 1.76% |
| Cc1ccccc1N(C(=O)Cn1nnc(-c2ccc(F)cc2)n1)C(C(=O)NC(C)(C)C)c1ccncc1 (centres undefined) | inactive: 23.1% |
| COc1ccc(Cl)cc1NC(=S)NCCO | inactive: 1.25% |
| C/C(Cl)=C\Cn1c(=O)c2c(nc3n2CCS3)n(C)c1=O | inactive: 1.13% |
| COc1cc(/C=N/Nc2ncnc3sc4c(c23)CCC4)ccc1O | inactive: 16% |
| O=C(COc1cccc(NC(=O)c2cccc([N+](=O)[O-])c2)c1)c1ccc(F)cc1 | inactive: 1.04% |
| O=C(COc1ccccc1C(=O)NCc1ccccn1)Nc1ccc(Br)cc1 | inactive: 29.2% |

| Compound | activation |
| --- | --- |
| COC(=O)C1=C(C)N(Cc2ccccc2)C(=NCCc2cccnc2)N[C@H]1c1ccc(Br)cc1 | inactive: 5.13% |
| CCNC(=O)c1ccc(C23CC4CC(CC(C4)C2)C3)o1 | inconclusive: 66.6% |
| O=C(Nc1cccc(S(=O)(=O)N2CCCCC2)c1)c1ccccn1 | inconclusive: 31.2% |
| C#CC(=O)N(c1cc(OC)ccc1OC)C(C(=O)NC1CCCC1)c1cccs1 (centres undefined) | inactive: 9.63% |
| CC(/C=C1\SC(=O)N(CCCC(=O)O)C1=O)=C\c1ccccc1 | inactive: 2.25% |
| S=C(NCc1ccncc1)Nc1ccc(Cl)c(Cl)c1 | inconclusive: 60.5% |
| Cc1ccc(OCC(=O)O/N=C(\N)Cc2ccc([N+](=O)[O-])cc2)cc1C | inconclusive: 36.9% |
| CCCCOP(=O)(OCCCC)C1(NS(=O)(=O)c2ccccc2)C=CC(=O)c2ccccc21 (centres undefined) | inconclusive: 50.5% |
| O=C(COc1ccc(S(=O)(=O)N2CCCC2)cc1)Nc1ccc(F)cc1 | inconclusive: 31.8% |
| COc1ccccc1NC(=O)N1CCN(c2cccc(C(F)(F)F)c2)CC1 | inconclusive: 55.2% |
| Cc1ccc(Sc2ncccc2COC(=O)Nc2ccccc2)cc1 | inconclusive: 38.3% |
| COc1cc(CNCCCN2CCOCC2)cc(Br)c1OCc1ccc(Cl)cc1 | inactive: 14.5% |
| Cn1cc(C(=O)Nc2ccc(C#N)cc2)c2ccccc2c1=O | inactive: 2.54% |
| Cc1ccc(CC(=O)Nc2ccc(S(=O)(=O)N3CCOCC3)cc2)cc1C | inconclusive: 60.1% |
| CCOC(=O)C(CSCC(=O)c1ccc(Cl)cc1)NC(=O)OC(C)(C)C (centres undefined) | inconclusive: 31.6% |
| CCOc1ccccc1N(C)C(=O)c1cc2c(=O)n(CC)c3ccccc3c2s1 | inconclusive: 31.4% |
| CCOc1ccc(NC(=O)N2CCC(c3ccc(C)cc3)C2)cc1 (centres undefined) | inconclusive: 37.3% |
| O=C(Nc1nnc(-c2ccc3c(c2)CCCC3)o1)c1ccccc1 | inactive: 11.4% |
| C#CCOCCOCCOCCNc1nc(N2CCN(C(=O)CCCCCCCCCCNC(=O)[C@H]([C@@H](C)CC)n3cc(CCCCCN)nn3)CC2)nc(N2CCN(C(=O)CCCCCCCCCCNC(=O)[C@H](CO)n3cc(CCCCCN)nn3)CC2)n1 | inactive: 4.21% |
| CCOc1ccc(CCNC(=O)c2cc(C)nc3ccccc23)cc1OCC | inconclusive: 40.2% |
| CCN(Cc1ccccc1)c1ccc(/C=C(\C#N)c2ccccn2)cc1 | inconclusive: 33.9% |
| Cc1ccc(CCNC(=O)c2ccc(CS(=O)(=O)Cc3ccc(F)cc3)o2)cc1 | inconclusive: 44.2% |
| N#Cc1c(-c2cccs2)cc(-c2cccs2)[nH]c1=O | inactive: 0.388% |

| Compound | activation |
| --- | --- |
| Cc1ccc(NC(=O)CNc2cc(S(=O)(=O)N3CCOCC3)ccc2NCC2CCCO2)cc1F (centres undefined) | inconclusive: 31.1% |
| COC(=O)c1ccc(NC(=O)C2CCN(C(=O)Nc3ccccc3)CC2)cc1 | inconclusive: 76% |
| Cc1cccc(NC(=S)NC2CCCC2)c1 | inconclusive: 36.1% |
| CCCCn1c(NC(=O)c2ccccc2)c(C#N)c2nc3ccccc3nc21 | inconclusive: 40% |
| O=C(NC1C(=O)NNC1c1ccccc1)c1ccc(F)cc1 (centres undefined) | inconclusive: 35.4% |
| CC1CC(C)CN(S(=O)(=O)c2ccc(NC(=O)CCN3C(=O)C4CC=CCC4C3=O)cc2)C1 (centres undefined) | inconclusive: 42.7% |
| Cc1sc(NC(=O)CS(=O)(=O)c2ccccc2)c(C(N)=O)c1C | inactive: -0.497% |
| COc1ccc(CNC(=S)NCc2ccc(F)cc2)cc1 | inconclusive: 54.3% |
| COc1ccc(CCC(C)NCc2ccc(Cl)c(Cl)c2)cc1 (centres undefined) | inactive: 8.25% |
| FC(F)(F)c1ccc(/C=N/NC(=S)NC2CCCCC2)cc1 | inactive: 15.2% |
| Cn1ncc2c(Nc3ccc(-c4ccccc4)cc3)ncnc21 | inconclusive: 66.3% |
| Cc1cc(-c2ccccc2)nc(N/N=C/c2ccc(O)cc2)n1 | inconclusive: 54.7% |
| COc1ccc(OC)c(NC2c3ccccc3C(=O)N2Cc2ccc3c(c2)OCO3)c1 (centres undefined) | inconclusive: 52.2% |
| CN(c1ccc(OCC(=O)NCc2cccnc2)cc1)S(=O)(=O)c1ccc(Cl)cc1 | inconclusive: 46.5% |
| Cc1ncc(CO)c(/C=N/Nc2cccc(Cl)n2)c1O | inconclusive: 31.6% |
| Fc1cccc(CSc2ccc3nnc(-c4cccnc4)n3n2)c1 | inconclusive: 46.7% |
| CCOc1ccccc1CNC(=O)CCn1ccc2cc(S(=O)(=O)N3CCCCC3)ccc21 | inactive: 2.01% |
| O=C1CC[C@@H](O)CCN1CC[C@H](Sc1ccc(Br)cc1)c1ccccc1 | inconclusive: 73.2% |
| COCCCNC(=O)c1ccc(Cn2c(=O)c3ccccc3n(Cc3ccccc3C#N)c2=O)cc1 | inconclusive: 31.7% |
| CC(C)(C)S(=O)(=O)c1cnc2c(-c3ccc(Cl)cc3)cnn2c1N | inactive: 4.75% |
| Cc1ccc(-n2ncc3c(NCc4cccnc4)ncnc32)cc1C | inactive: 11.9% |
| COC(=O)c1cc(OC)c(OC)cc1NC(=O)Cn1nnc(-c2ccccc2Cl)n1 | inactive: 2.93% |

Not a retest: entries from further up.

| Compound | activation |
| --- | --- |
| COc1ccc(-c2nn(-c3ccccc3)cc2/C=C/C(=O)NCCCn2ccnc2)cc1OC | inconclusive: 36% |
| O=C(C[n+]1cccc(O)c1)NCc1ccc(Cl)cc1 | inactive: -1.2% |
| Cc1ccc(S(=O)(=O)N2CC(C)N(C(=O)N3CCOCC3)C2C)cc1 (centres undefined) | inactive: -0.757% |
| CSc1ccc(Cl)c(C(=O)Nc2ccc(Cl)cn2)c1 | inconclusive: 38.2% |

More records

| Compound | activation |
| --- | --- |
| C/C(=C\C(=O)c1ccc(C)cc1)Nc1ccc(N2CCOCC2)cc1 | inactive: -0.637% |
| CCn1c(SCC(=O)NC2(C#N)CCCCC2)nc2ccccc2c1=O | inconclusive: 44.8% |
| C=C(C)CNC(=S)N/N=C(\C)c1ccc(OC)cc1 | inactive: 4.13% |
| CC(=O)c1cccc(NC(=O)COc2ccccc2C(=O)c2cc(C#N)c(=O)n(C3CCCCC3)c2)c1 | inactive: 2.52% |
| CN(C)/C=N/c1cc(=O)[nH]c(=O)n1CC1CC1 | inactive: 0.109% |
| COc1ccc(Nc2oc(-c3ccccc3F)nc2C#N)cc1 | inconclusive: 64.8% |
| O=[N+]([O-])c1cc(-c2nnc(Nc3ccc(O)cc3)c3ccccc23)ccc1N1CCOCC1 | inconclusive: 63.5% |
| Cc1ccc(C(=O)COc2ccccc2-c2ccccc2)cc1 | inconclusive: 33.8% |
| Cc1cccc(-c2nc(S(=O)(=O)c3ccccc3)c(N3CCOCC3)o2)c1 | inconclusive: 34.9% |
| NNC(=O)c1ccc(COc2ccc3c(c2)CCC3)o1 | inconclusive: 65.2% |
| C/C(=N\NC(=O)c1ccccc1O)c1c(O)cc(C)oc1=O | inconclusive: 34.4% |
| CC(=O)N(CC1CCCO1)c1nnc(-c2ccccn2)s1 (centres undefined) | inactive: 0.459% |
| C/C(CC(=O)Nc1ccc2c(c1)OCCO2)=N\NC(=O)c1ccccn1 | inconclusive: 40.4% |
| CCCOn1c(OCC(C)C)nc2ccccc2c1=O | inconclusive: 43.5% |
| O=C(Cc1ccc(Cl)cc1)Nc1ccc(NC(=O)c2cccs2)cc1 | inactive: 1.95% |
| CCOC(=O)c1ccc2[nH]c3c(c2c1)CCCC3 | inconclusive: 33.7% |
| O=C(N/N=C/c1ccsc1)c1ccc2ccccc2n1 | inconclusive: 41% |
| COc1ccccc1N1CCN(CCN2C(=O)C3CCCCN3C2=O)CC1 (centres undefined) | inactive: -1.44% |
| O=C(NCc1c(Cl)cccc1Cl)c1ccc2nnsc2c1 | inconclusive: 77.7% |
| COC(=O)c1cc(=O)n(Cc2ccc(F)cc2)c(=Nc2ccccc2)s1 | inactive: 16.7% |
